The shares of active, inactive and inconclusive entries below differ from those in the screen. Potencies beside an inconclusive call are fits to weak or partial responses and may not hold up. Activity calls are given as the source filed them. Unless noted, cut-off not given; nearly all actives show AC50 up to about 26 µM.
Key:
[1] = growth inhibition of DIPG glioma cells, dose response, cell-based, SU-DIPG-XVII, MIPE5.0, CellTiter-Glo, qHTS (AID 1347060); details: SU-DIPG-XVII viability, CellTiter-Glo ATP luminescence;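 on AC50: cells exposed to compound for 48 hours before viability readout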
[2] = growth inhibition of DIPG glioma cells, dose response, cell-based, SU-DIPG-XIII, MIPE5.0, CellTiter-Glo, qHTS (AID 1347064; cut-off not given, nearly all actives have AC50 up to about 23 µM;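 on AC50: cells exposed to compound for 48 hours before the viability read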); details: SU-DIPG-XIII viability, CellTiter-Glo ATP luminescence
[3] = viability loss in pontine glioma line – cell-based, SU-DIPG-XXV, MIPE5.0, CellTiter-Glo, qHTS, dose response (AID 1347065); details: CellTiter-Glo ATP luminescence;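 further: cells exposed to compound for 48 hours before ATP readout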
[4] = JHH-DIPG-1 glioma cell viability, MIPE5.0 library, CellTiter-Glo luminescence, qHTS (AID 1347067); details: JHH-DIPG-1 glioma viability, CellTiter-Glo ATP luminescence;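 further: cells exposed to compound for 48 hours before readout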
[5] = SU-DIPG-XXV glioma cell viability, MIPE5.0 library, qHTS (AID 1347068; cut-off not given, nearly all actives have IC50 up to about 30 µM;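 on IC50: cells exposed to compound for 48 hours before viability readout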)

| SMILES | outcome [1] | AC50 [2] | AC50 [3] | AC50 [4] | IC50 [5] | AC50 [1] | outcome [5] | outcome [2] | outcome [3] | outcome [4] |
| --- | --- | --- | --- | --- | --- | --- | --- | --- | --- | --- |
| CC(=O)N1CCN(CCOc2ccc(C3CCN(C4=Nn5c(nnc5C(F)(F)F)CC4)CC3)cc2)CC1 | inactive | inconclusive: 0.00118 µM | inconclusive: 0.00105 µM | inconclusive: 0.00105 µM | inconclusive: 0.00186 µM |  |  |  |  |  |
| CCOC(=O)C1=CCCCC1S(=O)(=O)Nc1ccc(F)cc1Cl (stereo not given) |  | inconclusive: 14.8 µM [cytotoxic] | inconclusive: 18.6 µM [cytotoxic] | inconclusive: 20.9 µM [cytotoxic] |  | inconclusive: 37.2 µM [cytotoxic] | inactive |  |  |  |
| COc1ccc(S(=O)(=O)NCc2ccc(C(=O)NCCc3ccc(Cl)cn3)cc2)cc1 | inactive |  |  |  | inconclusive: 16.6 µM [cytotoxic] |  |  | inactive | inactive | inactive |
| CC(C)C(N)C(=O)OCC(CO)OCn1cnc2c(=O)[nH]c(N)nc21 (stereo not given) |  |  |  |  |  | inconclusive: 20.9 µM [cytotoxic] | inactive | inactive | inactive | inactive |
| O=C(C1CC1)N1CC[C@@H](Cc2n[nH]c(=O)n2-c2ccc(-c3ccc4occc4c3)cc2)C1 |  | inconclusive: 2.35 µM [cytotoxic] | inconclusive: 9.34 µM [cytotoxic] | inconclusive: 20.9 µM [cytotoxic] | inconclusive: 11.8 µM | inconclusive: 0.105 µM [cytotoxic] |  |  |  |  |
| Cc1c(-c2ccc(-c3ccccc3F)cc2)nc2ccc(F)cc2c1C(=O)O |  |  | inconclusive: 0.0295 µM [cytotoxic] |  | inconclusive: 0.468 µM [cytotoxic] | inconclusive: 0.209 µM [cytotoxic] |  | inactive |  | inactive |
| CN(C)C(=O)c1cc2cnc(Nc3ccc(N4CCNCC4)cn3)nc2n1C1CCCC1 |  |  |  |  |  | inconclusive: 2.95 µM [cytotoxic] | inactive | inactive | inactive | inactive |
